One assay has as its target T1, HA-tagged AURKA (UniProt O14965).
T1 sequence: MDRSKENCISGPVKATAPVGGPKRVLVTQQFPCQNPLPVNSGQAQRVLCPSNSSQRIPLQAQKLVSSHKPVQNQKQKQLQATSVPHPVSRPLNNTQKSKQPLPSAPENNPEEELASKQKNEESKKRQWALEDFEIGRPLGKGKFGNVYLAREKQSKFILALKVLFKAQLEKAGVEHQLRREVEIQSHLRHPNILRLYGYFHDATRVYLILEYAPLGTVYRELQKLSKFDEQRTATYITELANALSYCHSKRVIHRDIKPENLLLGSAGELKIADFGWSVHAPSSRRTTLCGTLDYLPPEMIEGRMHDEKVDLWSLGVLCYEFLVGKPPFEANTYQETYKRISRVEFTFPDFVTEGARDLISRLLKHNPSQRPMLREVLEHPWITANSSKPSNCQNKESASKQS
Kind of assay: co-IP; SF188 and GBM22 cells transfected with HA-tagged AURKA; endogenous c-Myc and GSK3β detected.

Amino acid sequences for entries named in this document (tags omitted).
UniProt P01106: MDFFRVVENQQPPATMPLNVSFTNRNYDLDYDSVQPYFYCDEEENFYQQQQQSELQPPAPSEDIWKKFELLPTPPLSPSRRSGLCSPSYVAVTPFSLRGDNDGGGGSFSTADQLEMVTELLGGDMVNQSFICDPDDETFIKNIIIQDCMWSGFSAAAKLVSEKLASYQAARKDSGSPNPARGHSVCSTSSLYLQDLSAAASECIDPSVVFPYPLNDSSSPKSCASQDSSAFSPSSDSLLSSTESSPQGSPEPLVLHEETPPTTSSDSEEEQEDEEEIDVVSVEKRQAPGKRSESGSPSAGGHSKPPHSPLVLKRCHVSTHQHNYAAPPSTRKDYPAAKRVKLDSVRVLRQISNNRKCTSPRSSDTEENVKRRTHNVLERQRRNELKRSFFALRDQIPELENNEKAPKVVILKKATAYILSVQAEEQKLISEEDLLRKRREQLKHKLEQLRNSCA
UniProt P49841: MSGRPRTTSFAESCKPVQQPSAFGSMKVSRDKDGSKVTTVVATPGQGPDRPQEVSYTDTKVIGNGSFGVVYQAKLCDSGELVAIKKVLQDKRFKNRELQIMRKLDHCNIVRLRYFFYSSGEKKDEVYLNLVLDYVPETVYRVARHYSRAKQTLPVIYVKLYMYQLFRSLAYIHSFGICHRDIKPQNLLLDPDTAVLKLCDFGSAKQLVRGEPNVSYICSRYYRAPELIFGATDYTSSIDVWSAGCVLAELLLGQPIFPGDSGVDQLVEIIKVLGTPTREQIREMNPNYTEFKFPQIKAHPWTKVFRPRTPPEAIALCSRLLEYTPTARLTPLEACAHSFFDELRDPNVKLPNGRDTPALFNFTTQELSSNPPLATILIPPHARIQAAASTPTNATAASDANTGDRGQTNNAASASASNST

The target in assay [1] is c-Myc (human (endogenous in SF188 and GBM22)) (UniProt P01106). Briefly: co-IP; endogenous proteins; SF188 and GBM22 lysates (100 mM NaCl, 50 mM Tris-HCl, 0.5% NP-40) immunoprecipitated with IgG or c-Myc antibody on Dynabeads Protein G overnight at 4 °C, western blot; SF188 also vehicle-treated or treated with increasing dosages of alisertib. On the technique in general: A western blot detects proteins with antibodies after separation by electrophoresis.

Assay [2] has as its target c-Myc (human (endogenous in SF188 and GBM22)), P01106. Kind of assay: proximity ligation; in situ PLA (Duolink) on fixed, permeabilised SF188 and GBM22 cells with paired primary antibodies to the endogenous proteins. The following applies: remark: other sources report otherwise.
For assay [3] the target is unchanged. Kind of assay: co-IP; endogenous proteins; SF188 and GBM22 lysates (100 mM NaCl, 50 mM Tris-HCl, 0.5% NP-40) immunoprecipitated with IgG or c-Myc antibody on Dynabeads Protein G overnight at 4 °C, western blot; SF188 also vehicle-treated or treated with increasing dosages of alisertib. The following applies: remark: other sources report otherwise.

These are yes or no findings as the source states them, for the method shown. Binding seen in cells or lysates may run through a third protein. Some results given as binding are weak or reduced against the parent protein; the word gives no strength. For some of these results: Tags and fused reporters may be left off the sequences shown.

With “c-Myc (from UniProt P01106 1-454) (other; other documents disagree on this pair)”, in the assay with HA-tagged AURKA, the binding result was “binds”.
In the case of “GSK3β (from UniProt P49841 1-420) (enzyme)”, the binding result in assay [1] is “binds”.

B1: Aurora kinase A, O14965 1-403 (enzyme)
chain: T1 sequence
For B1, the binding entry in assay [2] and in assay [3] was “binds” in each case.

The values above are taken from paper PMC8410792.
